These are yes or no findings as the source states them, for the method shown. Some entries that bind do so weakly or less than the wild type.
What was measured:
[1] = molecular target: T1, human Leucine-Rich Repeat-Containing Protein 33 (LRRC33) (human) (UniProt Q86YC3); experiment: immunoprecipitation from L1.2 transfectant lysates, blot
T1 sequence: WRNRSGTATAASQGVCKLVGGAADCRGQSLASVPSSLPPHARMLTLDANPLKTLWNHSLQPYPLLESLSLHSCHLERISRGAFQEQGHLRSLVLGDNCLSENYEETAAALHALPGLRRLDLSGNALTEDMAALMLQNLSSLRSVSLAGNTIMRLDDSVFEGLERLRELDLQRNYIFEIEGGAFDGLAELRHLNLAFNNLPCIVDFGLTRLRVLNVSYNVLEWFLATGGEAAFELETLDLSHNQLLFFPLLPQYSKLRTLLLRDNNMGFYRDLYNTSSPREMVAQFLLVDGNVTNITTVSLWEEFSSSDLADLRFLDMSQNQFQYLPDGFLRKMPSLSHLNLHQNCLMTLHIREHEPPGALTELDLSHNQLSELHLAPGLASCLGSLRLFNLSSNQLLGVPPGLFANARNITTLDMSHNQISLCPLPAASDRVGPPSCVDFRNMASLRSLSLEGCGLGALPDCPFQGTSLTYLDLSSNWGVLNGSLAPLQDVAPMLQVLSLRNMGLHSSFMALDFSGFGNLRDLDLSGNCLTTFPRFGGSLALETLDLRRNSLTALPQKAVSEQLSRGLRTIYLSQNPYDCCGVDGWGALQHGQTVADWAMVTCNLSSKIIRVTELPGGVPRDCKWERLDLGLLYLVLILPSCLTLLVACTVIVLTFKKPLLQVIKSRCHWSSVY

[2] = molecular target: human LRRC33 complexed with pro-TGF-β1 (human) (UniProt Q86YC3); experiment: FACS on 293T transfectants co-expressing proTGF-β1
[3] = molecular target: LRRC33/GARP chimera 33-32-X5 (human) (UniProt Q14392); experiment: FACS on 293T transfectants co-expressing proTGF-β1
[4] = molecular target: T1, human Leucine-Rich Repeat-Containing Protein 33 (LRRC33) (human); experiment: FACS on THP-1 cells, with or without PMA
[5] = molecular target: human LRRC33 complexed with pro-TGF-β1 (human) (UniProt Q86YC3); experiment: FACS on 293T transfectants
[6] = molecular target: T1, human Leucine-Rich Repeat-Containing Protein 33 (LRRC33) (human); experiment: FACS on 293T transfectants
[7] = molecular target: human LRRC33 complexed with pro-TGF-β1 (human) (UniProt Q86YC3); experiment: immunoprecipitation from 293T co-transfectant lysates; FACS on co-transfectants

Measured: binding

B1: anti-LRRC33 monoclonal antibody (mAb) (antibody, V domains shown)
VH: EFQLQQSGPELVKPGASVKMSCKASGYSFTDSYMDWVKQSNGKTLEWIGLINPKYGTTTYNQKFKGKATLTVDQSSSTAYMQLNSLTSEDSAVYFCASLYYDYSAWFAYWGQGTLVTVSA
VL: QAVVTQESALTTSPGETVTLTCRSSTGAVTTSNYANWVQEKPDHLFTGLIGGTNNRAPGVPARFSGSLIGDKAALIITGAQTEDEAIYFCGLWFSNRWVFGGGTKLTVV
notes: Mouse hybridoma mAb raised in Lrrc33-/- mice against L1.2 cells expressing the 33-32-X1 chimera; also called anti-LRRC33 mAb; anti-LRRC33 antibody
binds: [1] | [2] | [3] | [4] | [5] | [6] | [7]

From patent US20190270798A1 (CHILDREN S MEDICAL CENTER, published 2019)
